According to PubChem BioAssay AID2685 (National Center for Advancing Translational Sciences (NCATS), 2010):
About 2,100 (0.66%) of roughly 320,000 compounds were called active. This list was built around the results that the source calls inconclusive (neither active nor inactive); the mix of calls is not that of the screen. The call rests on the fitted dose curve; in most records, active means well fitted inhibition curve with a large enough effect in the signal ratio, with a control signal flat (not every such curve was filed as active); inconclusive means small, poorly fitted or top-dose-only effect, or effect the other way, or a change in a side signal; inactive means flat fitted curve, though single readings scatter; the % refers to the signal ratio. Where the call is inconclusive, the potency comes from a doubtful curve fit.
On the % scale 0 is the no-effect control and ±100 the full control effect; potency means the concentration at half of the fitted maximal effect.

Experiment: qHTS Assay for Lipid Storage Modulators in Drosophila S3 Cells
Settings: BODIPY lipid droplet fluorescence, 18-24 h, cells fed with added oleic acid; lipid storage change, negative = inhibition: at 46.1 µM (top of the series) unless noted
In short: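 Drosophila S3 cells got compounds at several concentrations plus oleic acid (400 uM solution). Laser-scanning cytometry with 488 nm excitation read lipid droplets at 500-530 nm and cells at 575-640 nm. Percent activity was relative to 20 uM Triacsin C.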
For `Cc1c(Cl)cccc1NC(=S)NC(=O)CCN1C(=O)c2ccccc2C1=O`, the lipid storage change, negative = inhibition was inconclusive: 0.78%.
For `COc1ccccc1NC(=S)N(Cc1ccccc1)Cc1ccccn1`, the lipid storage change, negative = inhibition was inconclusive: -120%.
In the case of `O=C(CCc1nnc2n(Cc3ccccc3Cl)c(=O)c3ccccc3n12)NCCCN1CCOCC1`, the lipid storage change, negative = inhibition was inconclusive: 98.3%.
For `CCN1CCN(CCCNC(=O)CCC(=O)N2CCOc3ccc(Cl)cc32)CC1`, the lipid storage change, negative = inhibition was inconclusive: 15.5%.
For `O=C(O)C1CCCCC1C(=O)NCCc1cccc(Cl)c1` (centres undefined), the “lipid storage change, negative = inhibition” value was inactive: -11.6%.
In the case of `Cc1ccc(C)n1-c1ccc(C(=O)Nc2ccccc2)cc1`, the lipid storage change, negative = inhibition was inconclusive: 24%.
In the case of `O=C(Cc1ccccc1)NCC(=O)N1CCN(c2ccccc2)CC1`, the lipid storage change, negative = inhibition was inconclusive: -15.6%.
For `Cc1ccc(NC(=O)COC(=O)Cc2c[nH]c3ccccc23)cc1C`, the Potency was inconclusive: 32.6 µM [activator, single point].
In the case of `Cc1ccc(CSCc2ccc(C(=O)NCCCN3CCOCC3)o2)cc1`, the “lipid storage change, negative = inhibition” value was inactive: -1.21%.
With `O=C(c1ccc2c(c1)OCO2)N1CCN=C1SCc1ccccc1` the Potency was inconclusive: 1.84 µM [activator, partial curve, poor fit].
For `O=C(c1cc(COc2cccc(C(F)(F)F)c2)on1)N1C[C@H]2CC[C@H]1C2`, the lipid storage change, negative = inhibition was inconclusive: -44.8%.
In the case of `COc1cccc(NC(=O)c2nn(C)c3c2CS(=O)(=O)c2ccccc2-3)c1`, the lipid storage change, negative = inhibition was inconclusive: 5.74%.
For `Cc1cc(C)c(C(=O)COC(=O)c2cc([N+](=O)[O-])ccc2N2CCOCC2)cc1C`, the Potency was inconclusive: 0.326 µM [falling, partial curve, poor fit].
With `COc1cccc(N2CCN(Cc3nc4ccccc4c(=O)[nH]3)CC2)c1` the lipid storage change, negative = inhibition was inconclusive: -17.3%.
For `CCN(C(=O)COc1cccc2cccnc12)C1CCS(=O)(=O)C1` (centres undefined), the lipid storage change, negative = inhibition was inconclusive: -0.837%.
For `CCc1ccc(NC(=O)c2[nH]c(C)c(C(C)=O)c2C)cc1`, the lipid storage change, negative = inhibition was inconclusive: -100%.
With `O=C(NCCc1ccccc1)c1nccc2ccccc12` the lipid storage change, negative = inhibition was inconclusive: 23%.
For `CNS(=O)(=O)c1cccc2cccnc12`, the lipid storage change, negative = inhibition was inactive: 11.3% [at 9.22 µM].
For `O=S(=O)(c1ccccc1)N1CCN(c2nc(-c3cccnc3)nc3ccccc23)CC1`, the lipid storage change, negative = inhibition was inconclusive: 49.6%.
For `CCN1CCN(C(=O)CS(=O)(=O)Cc2nc(-c3ccccc3C)oc2C)CC1`, the lipid storage change, negative = inhibition was inconclusive: -11.9%.
With `O=C(NCc1n[nH]c(=S)n1-c1ccccc1)c1ccc(S(=O)(=O)N2CCOCC2)cc1` the lipid storage change, negative = inhibition was inconclusive: 24.7%.
In the case of `Cc1ccc2c(c1)cc(CN(C(=O)N1CCOCC1)C1CCCC1)c1nnnn12`, the lipid storage change, negative = inhibition was inconclusive: -18.1%.
In the case of `O=C1C=C(O)C(n2cncn2)C(c2ccc3c(c2)OCO3)C1` (centres undefined), the lipid storage change, negative = inhibition was inconclusive: -40.4%.
In the case of `CCOc1ccc(Nc2oc(-c3cccs3)nc2C#N)cc1`, the lipid storage change, negative = inhibition was inconclusive: 6.53%.
For `N=C1C(c2ccccc2)=C(O)C2CCc3ccccc3N12` (centres undefined), the lipid storage change, negative = inhibition was inconclusive: 21.3%.
With `Cc1occc1C(=O)Nc1ccc(S(=O)(=O)N2CCN(C)CC2)cc1` the Potency was inconclusive: 29.1 µM [falling, single point].
For `Cc1[nH]n(-c2ccccc2)c(=O)c1N=Nc1ccc(C(N)=O)cc1`, the “outcome” value was “inactive [at 46.1 µM]”.
For `CCOCC(=O)Nc1nnc(C)s1`, the lipid storage change, negative = inhibition was inconclusive: -4.57%.
For `CC(=O)C1C(=O)C=C(c2cccs2)CC1c1ccccc1` (centres undefined), the lipid storage change, negative = inhibition was inconclusive: 23.4%.
With `Cc1ccccc1N(CC(=O)NCCSCc1ccco1)S(C)(=O)=O` the Potency was inconclusive: 0.0058 µM [falling, full curve, poor fit].
With `C=CCOC(=O)C1=C(C)N(C)C(=O)NC1c1cc2c(cc1Br)OCO2` (centres undefined) the Potency was inconclusive: 6.51 µM [rising, single point].
With `CCOC(=O)N1CCN(C(=O)COC(=O)Cc2ccc(Cl)cc2)CC1` the Potency was inconclusive: 29.1 µM [falling, partial curve, poor fit].
With `CC(C)c1nc(CNC(=O)c2ccc(OC3CCN(Cc4ccccn4)CC3)cc2)cs1` the lipid storage change, negative = inhibition was inconclusive: -132%.
With `COc1ccc(C(=O)N2CCOC2CNC(=O)C(=O)NCc2ccccc2Cl)cc1` (centres undefined) the Potency was inconclusive: 25.1 µM [activator, single point].
With `COc1cc(C(=O)Nc2cccc3c2CCCC3)cc(OC)c1OC` the Potency was inconclusive: 6.51 µM [rising, single point].
For `O=C(NC(=S)Nc1cccc(NC(=S)NC(=O)c2ccco2)n1)c1ccco1`, the lipid storage change, negative = inhibition was inconclusive: 151%.
With `O=C(c1cc2sccc2n1Cc1ccccc1)N1CCc2ccccc21` the lipid storage change, negative = inhibition was inconclusive: 27.8%.
In the case of `O=C1CC(N2CCC(c3nc4ccccc4o3)CC2)C(=O)N1c1ccc(F)cc1` (centres undefined), the lipid storage change, negative = inhibition was inconclusive: -10.2% [at 9.22 µM].
With `c1ccc(-c2onc3cc4c(cc23)OCCO4)cc1` the lipid storage change, negative = inhibition was inconclusive: 40.9%.
With `O=C(OCc1nc2ccccc2s1)c1cc2ccccc2oc1=O` the lipid storage change, negative = inhibition was inconclusive: 16.9%.
For `O=C(COc1cc2oc(=O)c3c(c2cc1Cl)CCC3)NCCN1CCOCC1`, the lipid storage change, negative = inhibition was inconclusive: -51.5%.
In the case of `O=C1/C(=C/c2ccco2)SC(=S)N1CCC(=O)N1CCCCC1CCO` (centres undefined), the Potency was inconclusive: 29.1 µM [falling, single point].
In the case of `COc1ccc(-n2ncc3c2CC(C)(C)CC3NC(=O)CCc2c(C)nn(C)c2C)cc1` (centres undefined), the lipid storage change, negative = inhibition was inconclusive: -12.3%.
In the case of `CCn1cc(/C=C2/SC(=S)NC2=O)c(C)n1`, the lipid storage change, negative = inhibition was inconclusive: 0.201%.
For `COc1cc(/C=C/C(=O)OCC(=O)NCC2CCCCC2)ccc1O`, the lipid storage change, negative = inhibition was inconclusive: -73.9%.
With `COc1ccc(N2CCN(C(=O)CSc3ncnc4c3cnn4-c3ccc(OC)cc3)CC2)cc1` the lipid storage change, negative = inhibition was inconclusive: 3.61%.
For `CCOC(=O)N1CCN(S(=O)(=O)c2ccc(F)cc2)CC1`, the lipid storage change, negative = inhibition was inconclusive: 11.6%.
For `CC1(N2CCOCC2)C(=O)c2ccccc2C1=O`, the lipid storage change, negative = inhibition was inconclusive: -18.8%.
With `CCCc1cc2c(cc1NC(=O)c1ccc(C(C)(C)C)cc1)OCO2` the Potency was inconclusive: 29.1 µM [falling, single point].
In the case of `Cc1ccccc1/C=N/N1CCN(c2ccccc2)CC1`, the lipid storage change, negative = inhibition was inconclusive: 26%.
In the case of `CN(C)/C=N/c1nccc(-c2cccs2)n1`, the lipid storage change, negative = inhibition was inconclusive: 6.69%.
With `Cc1ccc(C)c(N2CC(C(=O)O)CC2=O)c1` (centres undefined) the lipid storage change, negative = inhibition was inconclusive: 16.7%.
With `O=[N+]([O-])c1ccc(Cl)c(CN2CCN(c3ncccn3)CC2)c1` the lipid storage change, negative = inhibition was inconclusive: 31.4%.
With `CCC(C)[C@H](NC(=O)Nc1ccc(S(N)(=O)=O)cc1)C(=O)OC` (some centres undefined) the lipid storage change, negative = inhibition was inconclusive: -26.7%.
For `CCc1cc(=O)oc2c3c(cc(OCC(=O)Nc4cccnc4)c12)OC(C)(C)CC3`, the Potency was inconclusive: 29.1 µM [falling, single point].
For `CC(C)CC1CCCCC1OC(=O)C[N+]1(C)CCCCC1` (centres undefined), the lipid storage change, negative = inhibition was inconclusive: 1.91%.
With `COc1cc(C(=O)O)c([N+](=O)[O-])c(OC)c1OC` the lipid storage change, negative = inhibition was inconclusive: 8.06%.
With `Cc1nc(SCc2ccc(O)c([N+](=O)[O-])c2)c([N+](=O)[O-])[nH]1` the lipid storage change, negative = inhibition was inconclusive: -9.87%.
With `Cc1ccc(S(=O)(=O)N2CCN(C(=O)c3n[nH]c(=O)c4ccccc34)CC2)c(C)c1` the Potency was inconclusive: 6.51 µM [falling, partial curve, poor fit].
In the case of `COc1cc(OC)c([N+](=O)[O-])cc1/C=N/NC(=O)c1ccncc1`, the lipid storage change, negative = inhibition was inconclusive: 53.4%.
In the case of `NC(=O)CCN1CCN(S(=O)(=O)/C=C/c2ccccc2)CC1`, the lipid storage change, negative = inhibition was inconclusive: -48.3%.
For `COC(=O)C1C(c2ccc(OC)cc2)C(C(=O)OC)S(=O)(=O)C(CCN2CCCCC2)S1(=O)=O` (centres undefined), the lipid storage change, negative = inhibition was inconclusive: 11%.
With `CCOc1ccc(/C=N/Nc2cc(=O)n(C)c(=O)n2C)cc1` the Potency was inconclusive: 29.1 µM [falling, single point].
In the case of `O=C(CCCn1c(=S)[nH]c2cc3c(cc2c1=O)OCO3)N1CCN(c2ccccn2)CC1`, the Potency was inconclusive: 25.9 µM [falling, single point].
In the case of `COc1ccc(C2CC(c3cccs3)=NN2C(=O)CSc2nc3c(cnn3-c3ccccc3)c(=O)[nH]2)cc1` (centres undefined), the Potency was inconclusive: 7.31 µM [activator, partial curve].
With `Cn1c(SCC(=O)Nc2ccc3c(c2)OCCO3)nnc1-c1ccco1` the lipid storage change, negative = inhibition was inconclusive: 33.5%.
With `CC1Cc2nc(SCC(N)=O)n(Cc3ccccc3)c(=O)c2S1` (centres undefined) the Potency was inconclusive: 0.58 µM [falling, single point].
In the case of `N#CC1=C(N)Oc2c(sc3ccccc23)C1c1ccco1` (centres undefined), the Potency was inconclusive: 5.17 µM [activator, partial curve].
For `C=CCn1c(NC(C)c2cc(Cl)ccc2O)nc2ccccc21` (centres undefined), the lipid storage change, negative = inhibition was inconclusive: 34.4%.
With `FC(F)(F)c1ccc2c(c1)N1CCCC1CN2` (centres undefined) the Potency was inconclusive: 23.1 µM [falling, partial curve].
For `O=C(CN1CCOCC1)Nc1ccc([N+](=O)[O-])cc1Br`, the lipid storage change, negative = inhibition was inconclusive: -46.9% [cytotoxic] [at 0.00295 µM].
In the case of `C[C@H]1CN=C(N(C)C)N1CCc1ccccc1`, the lipid storage change, negative = inhibition was inconclusive: 79.7%.
In the case of `Cn1c(SCC(=O)NCc2ccc3c(c2)OCO3)nnc1-c1c[nH]c2ccccc12`, the Potency was inconclusive: 0.231 µM [activator, full curve].
For `NC(=O)c1ccc(NC(=O)CSC2=Nc3ccccc3C3CC=NN23)cc1` (centres undefined), the Potency was inconclusive: 2.59 µM [rising, partial curve].
For `CCn1c(=O)c2sccc2n(Cc2cccc(C)c2)c1=O`, the lipid storage change, negative = inhibition was inconclusive: 30.9%.
For `N#Cc1ccc(COC(=O)c2ccccn2)cc1`, the lipid storage change, negative = inhibition was inconclusive: 32.2%.
With `CCOc1ccccc1NC(=O)c1c(NC(=O)CCC(=O)O)sc2c1CCCCC2` the lipid storage change, negative = inhibition was inconclusive: -85%.
In the case of `CCC(Sc1nc(C)cc(C)n1)C(=O)O` (centres undefined), the Potency was inconclusive: 0.461 µM [falling, full curve, poor fit].
With `O=C(Cc1ccc([N+](=O)[O-])cc1)N/N=C/c1ccco1` the lipid storage change, negative = inhibition was inconclusive: -33.7%.
